# At least one compound was matched to its structure with a doubt left.
# Tested on: GYKI 20039-induced tremor
# Assay: GYKI 20039-induced tremor test
# Type: in vivo
# Conditions: 10 mg/kg intraperitoneal dose in mice
# Procedure: Tremor can be induced by administration of GYKI 20039 (3-(2,6-diclorophenyl)-2-iminothiazolidine). The method was published by Kocsis P., Tarnawa I., Kovacs Gy., Szombathelyi Zs., Farkas S., 2002; Acta Pharmaceut. Hung., 72:49-61; U.S. Pat. No. 5,340,823, 1994, U.S. Pat. No. 5,198,446, JP 1992270293, EP 0468825, 1990 HU 4647.
# Tests were carried out in male NMRI mice (19-21 g), the active substances were administered i.p., simultaneously.
# Experiments with combinations containing the active agents in a fixed ratio were also performed.
smiles,measurement,value
"N=C1SCCN1c1c(Cl)cccc1Cl [GYKI 20039, 3-(2,6-diclorophenyl)-2-iminothiazolidine]",time of maximum of induced tremor,4th-8th
